Laboratory results taken from US20170266222A1, “MODULATION OF CHRFAM7A FOR ANTI-INFLAMMATORY THERAPIES” (THE REGENTS OF THE UNIVERSITY OF CALIFORNIA, priority 2016, published 2017).
Results are given in words; binding and its absence hold for the method and conditions named. Some entries that bind do so weakly or less than the wild type.

By UniProt entry, the sequences of proteins in these tests, tags left out. Residues count along the entry.
UniProt P36544, residues 23-502: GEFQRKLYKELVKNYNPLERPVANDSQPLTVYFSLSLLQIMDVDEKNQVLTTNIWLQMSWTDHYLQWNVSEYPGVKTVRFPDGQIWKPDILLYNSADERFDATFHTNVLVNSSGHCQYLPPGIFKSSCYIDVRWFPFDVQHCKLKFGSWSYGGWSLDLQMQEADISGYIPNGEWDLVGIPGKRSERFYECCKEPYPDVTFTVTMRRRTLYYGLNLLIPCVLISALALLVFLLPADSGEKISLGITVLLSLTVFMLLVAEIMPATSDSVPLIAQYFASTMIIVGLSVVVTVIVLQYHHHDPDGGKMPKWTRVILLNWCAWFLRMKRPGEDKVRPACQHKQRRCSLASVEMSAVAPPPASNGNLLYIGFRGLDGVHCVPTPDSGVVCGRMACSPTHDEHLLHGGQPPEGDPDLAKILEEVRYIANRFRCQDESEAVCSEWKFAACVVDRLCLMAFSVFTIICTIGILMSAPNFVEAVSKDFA
UniProt P60615, residues 22-95: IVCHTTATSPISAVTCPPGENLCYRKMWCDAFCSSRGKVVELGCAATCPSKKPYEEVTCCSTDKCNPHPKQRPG

Key:
[1] = biological target: α7-nicotinic acetylcholine receptor (α7nAChR) encoded by CHRNA7, on human THP1 cells (human) (UniProt P36544); assay: flow cytometry, labeled bungarotoxin on parental THP1 cells (FIG. 4C)
[2] = biological target: α7-nicotinic acetylcholine receptor (α7nAChR) encoded by CHRNA7, on human THP1 cells (human) (UniProt P36544); assay: flow cytometry, labeled bungarotoxin on fixed parental THP1 cells
[3] = biological target: α7-nicotinic acetylcholine receptor (α7nAChR) encoded by CHRNA7, on human THP1 cells (human) (UniProt P36544); assay: flow cytometry, labeled bungarotoxin on CHRFAM7A-transduced THP1 cells

Measured: binding

labeled bungarotoxin (from UniProt P60615 22-95) (ligand)
binds: all assays above
